Experimental data taken from PMC5996148.
“And” between values parts separate entries of the source, which are not always exact repeats. Equal entries are not always repeated. Some of the results follow. For some of these results: Construct or isoform of the protein are uncertain.

Amino acid sequences for entries named in this document (tags omitted). A change or cut given only in a name is not applied to a line headed by its entry.
UniProt P68400: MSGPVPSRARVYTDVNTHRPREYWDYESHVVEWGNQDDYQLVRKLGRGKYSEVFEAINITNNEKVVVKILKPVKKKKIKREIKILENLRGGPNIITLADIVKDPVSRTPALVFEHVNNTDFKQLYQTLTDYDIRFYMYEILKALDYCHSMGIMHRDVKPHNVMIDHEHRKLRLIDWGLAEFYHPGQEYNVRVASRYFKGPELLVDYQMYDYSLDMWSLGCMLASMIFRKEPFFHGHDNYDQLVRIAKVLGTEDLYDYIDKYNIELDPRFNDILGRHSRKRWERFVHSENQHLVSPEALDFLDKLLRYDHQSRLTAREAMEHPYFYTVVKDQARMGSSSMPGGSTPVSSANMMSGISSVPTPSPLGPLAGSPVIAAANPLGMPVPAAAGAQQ

What was measured:
Assay in all cases: protein microarray (ProtoArray v5.0), streptavidin-Alexa Fluor 647
Settings in all cases: 3'-biotin; 20 mM Tris (pH 7.5), 5 mM MgCl2, 100 mM KCl, 0.1% Tween-20, A/T-rich and random oligonucleotide blockers; temperature not stated; high values mean tight binding
CS (human) = test system: CS (human)
CSAG1 = target: T1, CSAG1 (UniProt Q6PB30)
T1 sequence: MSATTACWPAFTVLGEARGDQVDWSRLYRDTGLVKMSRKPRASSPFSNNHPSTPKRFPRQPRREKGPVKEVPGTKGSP

CSF1 (human) = test system: CSF1 (human)
CSNK2A1 = CSNK2A1 (UniProt P68400)
CST2 (human) = test system: CST2 (human)
CST4 (human) = test system: CST4 (human)
CST7 (human) = test system: CST7 (human)
CT47.11 = target: T2, CT47.11 (UniProt Q5JQC4)
T2 sequence: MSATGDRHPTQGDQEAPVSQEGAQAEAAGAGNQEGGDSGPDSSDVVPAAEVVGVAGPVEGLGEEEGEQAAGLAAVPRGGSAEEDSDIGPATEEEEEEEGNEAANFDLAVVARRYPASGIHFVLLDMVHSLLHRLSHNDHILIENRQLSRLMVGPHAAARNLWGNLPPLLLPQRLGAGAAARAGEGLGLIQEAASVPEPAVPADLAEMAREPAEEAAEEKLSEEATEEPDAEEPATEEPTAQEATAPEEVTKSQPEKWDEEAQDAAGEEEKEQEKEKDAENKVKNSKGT

CTBP1 (human) = test system: CTBP1 (human)
CTBP2 (human) = test system: CTBP2 (human)

Work on “GGGAGGCTGAGGCAGG [G4-1 biotinylated (PQS2)]” yielded a binding signal (CS (human)) of -0.294 z-score, a binding signal (CSAG1) of 4.93 z-score and a binding signal (CSF1 (human)) of -0.342 z-score. The binding signal (CSNK2A1) was 5.06 z-score and 6.1 z-score, the binding signal (CST2 (human)) was -0.324 z-score and the binding signal (CST4 (human)) was -0.307 z-score. For the same sequence, the binding signal (CST7 (human)) was -0.323 z-score, the binding signal (CT47.11) was -0.299 z-score and the binding signal (CTBP1 (human)) was -0.351 z-score and -0.354 z-score. The binding signal (CTBP2 (human)) was -0.319 z-score.
